Results are given in words; binding and its absence hold for the method and conditions named. Binding seen in cells or lysates may run through a third protein. Some entries that bind do so weakly or less than the wild type.
Tests used:
[1] = target: GST-Cbl C (Cbl residues 358–906) (UniProt P22681); experiment: pull-down; GST-Cbl fusion proteins from bacterial lysates bound to glutathione-Sepharose beads and washed, incubated with RIPA lysates (500 µg) of 293T cells expressing GFP-myosin IIA; Western blot with anti-GFP antibody; only the target purified
HA-tagged Cbl wild-type = HA-tagged Cbl wild-type (UniProt P22681); experiment: co-IP; HeLa cells transfected with HA-tagged Cbl constructs, serum starved 4 h, stimulated with TPA (100 ng/ml) 5 min; RIPA lysates immunoprecipitated with anti-HA antibodies, immunoblotted with myosin IIA antibody
[2] = target: c-Cbl (human (endogenous in HMVEC-d)) (UniProt P22681); experiment: co-IP; lysates (RIPA buffer) of serum starved HMVEC-d cells, uninfected or infected with KSHV (time course; 10 min for myosin blots; also heparin treated virus, also cells pretreated with 2 µg/ml cytochalasin D); immunoprecipitated with anti-c-Cbl antibody, 2 h at 4°C, protein A or G-Sepharose; Western blot with anti-p85 or myosin II isoform specific antibodies

Chains of the proteins cited; added tags and fusions are not shown.
UniProt P35579: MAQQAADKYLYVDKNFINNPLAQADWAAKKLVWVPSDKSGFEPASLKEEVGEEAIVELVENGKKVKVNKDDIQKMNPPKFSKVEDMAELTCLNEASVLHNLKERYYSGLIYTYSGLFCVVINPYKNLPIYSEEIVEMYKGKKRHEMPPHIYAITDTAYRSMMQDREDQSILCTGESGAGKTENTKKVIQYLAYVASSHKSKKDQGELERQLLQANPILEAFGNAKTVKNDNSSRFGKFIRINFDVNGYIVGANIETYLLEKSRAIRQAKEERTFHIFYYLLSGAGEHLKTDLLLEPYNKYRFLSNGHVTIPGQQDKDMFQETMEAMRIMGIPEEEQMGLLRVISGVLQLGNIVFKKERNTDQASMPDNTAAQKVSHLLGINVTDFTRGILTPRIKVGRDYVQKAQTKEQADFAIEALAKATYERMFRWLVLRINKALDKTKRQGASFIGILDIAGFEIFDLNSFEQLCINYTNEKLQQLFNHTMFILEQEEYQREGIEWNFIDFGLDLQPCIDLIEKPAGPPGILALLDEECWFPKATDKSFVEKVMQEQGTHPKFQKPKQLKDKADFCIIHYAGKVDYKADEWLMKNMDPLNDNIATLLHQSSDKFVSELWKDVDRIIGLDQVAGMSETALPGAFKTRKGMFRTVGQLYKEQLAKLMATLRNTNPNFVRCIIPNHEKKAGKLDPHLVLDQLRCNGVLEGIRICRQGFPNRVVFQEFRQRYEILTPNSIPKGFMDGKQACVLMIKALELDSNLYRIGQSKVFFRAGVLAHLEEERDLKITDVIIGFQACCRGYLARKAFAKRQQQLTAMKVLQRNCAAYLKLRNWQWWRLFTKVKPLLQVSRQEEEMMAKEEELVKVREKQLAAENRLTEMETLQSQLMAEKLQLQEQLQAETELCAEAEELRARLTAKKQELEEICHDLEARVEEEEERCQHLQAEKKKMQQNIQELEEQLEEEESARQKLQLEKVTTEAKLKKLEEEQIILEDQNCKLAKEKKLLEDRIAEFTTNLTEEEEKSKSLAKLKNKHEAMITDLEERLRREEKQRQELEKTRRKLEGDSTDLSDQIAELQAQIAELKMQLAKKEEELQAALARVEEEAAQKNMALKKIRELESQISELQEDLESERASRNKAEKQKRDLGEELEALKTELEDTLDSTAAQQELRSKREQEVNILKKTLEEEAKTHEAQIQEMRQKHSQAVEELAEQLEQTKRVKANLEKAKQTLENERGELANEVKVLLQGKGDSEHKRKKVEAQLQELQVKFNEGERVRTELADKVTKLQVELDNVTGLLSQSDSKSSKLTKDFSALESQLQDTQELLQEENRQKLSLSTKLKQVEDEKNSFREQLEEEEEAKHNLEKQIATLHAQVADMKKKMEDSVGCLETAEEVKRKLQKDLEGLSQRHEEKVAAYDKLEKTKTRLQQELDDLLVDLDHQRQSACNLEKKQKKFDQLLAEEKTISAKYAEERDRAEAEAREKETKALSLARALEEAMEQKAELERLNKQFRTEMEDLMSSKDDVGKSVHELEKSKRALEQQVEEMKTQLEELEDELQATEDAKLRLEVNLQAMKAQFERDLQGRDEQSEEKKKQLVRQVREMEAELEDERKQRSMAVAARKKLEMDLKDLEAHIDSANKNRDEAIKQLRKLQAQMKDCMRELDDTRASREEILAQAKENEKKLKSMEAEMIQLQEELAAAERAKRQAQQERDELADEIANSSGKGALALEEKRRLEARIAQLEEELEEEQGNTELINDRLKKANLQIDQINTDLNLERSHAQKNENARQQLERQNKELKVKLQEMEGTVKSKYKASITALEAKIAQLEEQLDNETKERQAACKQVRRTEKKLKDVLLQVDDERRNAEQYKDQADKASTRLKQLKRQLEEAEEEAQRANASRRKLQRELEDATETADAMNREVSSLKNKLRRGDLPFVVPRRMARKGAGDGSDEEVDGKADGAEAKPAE

## GFP-tagged myosin IIA (from UniProt P35579 1-1960)
[1]
  binding: binds

## endogenous myosin IIA (HeLa) (from UniProt P35579 1-1960)
HA-tagged Cbl wild-type
  binding: binds

## non-muscle myosin heavy chain IIA (from UniProt P35579 1-1960)
[2]
  binding: binds

— paper PMC3009604
